Numbering of substitutions follows the chain as printed. This is one part of the list. For some assays here: At the low end of the ranking the order means little. For some assays here: Construct or isoform of the protein are uncertain.
What was measured:
Conditions in all cases: yeast three-hybrid, YBZ-1, SC-Leu-His + 0.5 mM 3-AT, 4 days
[1] = target: T1, PUM1 PUF domain R3-VWF C935V + R936W + Q939F (UniProt Q14671)
T1 sequence: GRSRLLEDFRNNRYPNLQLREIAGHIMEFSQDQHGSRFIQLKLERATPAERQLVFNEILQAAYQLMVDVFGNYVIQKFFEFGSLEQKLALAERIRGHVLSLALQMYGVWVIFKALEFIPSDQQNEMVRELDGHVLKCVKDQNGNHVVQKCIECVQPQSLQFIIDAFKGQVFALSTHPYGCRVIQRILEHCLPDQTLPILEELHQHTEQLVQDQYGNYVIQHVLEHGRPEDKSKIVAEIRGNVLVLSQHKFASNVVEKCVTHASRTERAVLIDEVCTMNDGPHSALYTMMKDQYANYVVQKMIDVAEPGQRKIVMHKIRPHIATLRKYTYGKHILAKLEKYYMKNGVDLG

[2] = target: T2, PUM1 PUF domain R3-VWG C935V + R936W + Q939G (Homo sapiens) (UniProt Q14671)
T2 sequence: T1 sequence with F112G

[3] = target: T3, PUM1 PUF domain R3-VWP C935V + R936W + Q939P (UniProt Q14671)
T3 sequence: T1 sequence with F112P

[4] = target: T4, PUM1 PUF domain R3-VYF C935V + R936Y + Q939F (UniProt Q14671)
T4 sequence: T1 sequence with W109Y

[5] = target: T5, PUM1 PUF domain R3-VYG C935V + R936Y + Q939G (Homo sapiens) (UniProt Q14671)
T5 sequence: T1 sequence with W109Y, F112G

[6] = target: T6, PUM1 PUF domain R3-VYP C935V + R936Y + Q939P (UniProt Q14671)
T6 sequence: T1 sequence with W109Y, F112P

[7] = target: T7, PUM1 PUF domain R3-WAR C935W + R936A + Q939R (UniProt Q14671)
T7 sequence: T1 sequence with V108W, W109A, F112R

[8] = target: T8, PUM1 PUF domain R3-WCA C935W + R936C + Q939A (UniProt Q14671)
T8 sequence: T1 sequence with V108W, W109C, F112A

[9] = target: T9, PUM1 PUF domain R3-WCG C935W + R936C + Q939G (UniProt Q14671)
T9 sequence: T1 sequence with V108W, W109C, F112G

[10] = target: T10, PUM1 PUF domain R3-WCS C935W + R936C + Q939S (UniProt Q14671)
T10 sequence: T1 sequence with V108W, W109C, F112S

[11] = target: T11, PUM1 PUF domain R3-WFE C935W + R936F + Q939E (UniProt Q14671)
T11 sequence: T1 sequence with V108W, W109F, F112E

[12] = target: T12, PUM1 PUF domain R3-WFG C935W + R936F + Q939G (UniProt Q14671)
T12 sequence: T1 sequence with V108W, W109F, F112G

[13] = target: T13, PUM1 PUF domain R3-WWG C935W + R936W + Q939G (UniProt Q14671)
T13 sequence: T1 sequence with V108W, F112G

[14] = target: T14, PUM1 PUF domain R3-WWQ C935W + R936W (UniProt Q14671)
T14 sequence: T1 sequence with V108W, F112Q

[15] = target: T15, PUM1 PUF domain R3-WWR C935W + R936W + Q939R (UniProt Q14671)
T15 sequence: T1 sequence with V108W, F112R

[16] = target: T16, PUM1 PUF domain R3-YCG C935Y + R936C + Q939G (UniProt Q14671)
T16 sequence: T1 sequence with V108Y, W109C, F112G

[17] = target: T17, PUM1 PUF domain R3-YCV C935Y + R936C + Q939V (UniProt Q14671)
T17 sequence: T1 sequence with V108Y, W109C, F112V

[18] = target: T18, PUM1 PUF domain R3-YFA C935Y + R936F + Q939A (Homo sapiens) (UniProt Q14671)
T18 sequence: T1 sequence with V108Y, W109F, F112A

[19] = target: T19, PUM1 PUF domain R3-YRA C935Y + Q939A (UniProt Q14671)
T19 sequence: T1 sequence with V108Y, W109R, F112A

[20] = target: T20, PUM1 PUF domain R3-YRE C935Y + Q939E (UniProt Q14671)
T20 sequence: T1 sequence with V108Y, W109R, F112E

[21] = target: T21, PUM1 PUF domain R3-YRR C935Y + Q939R (UniProt Q14671)
T21 sequence: T1 sequence with V108Y, W109R, F112R

[22] = target: T22, PUM1 PUF domain R3-YRS C935Y + Q939S (UniProt Q14671)
T22 sequence: T1 sequence with V108Y, W109R, F112S

[23] = target: T23, PUM1 PUF domain R3-YRV C935Y + Q939V (UniProt Q14671)
T23 sequence: T1 sequence with V108Y, W109R, F112V

[24] = target: T24, PUM1 PUF domain R3-YRW C935Y + Q939W (UniProt Q14671)
T24 sequence: T1 sequence with V108Y, W109R, F112W

[25] = target: T25, PUM1 PUF domain R3-YSG C935Y + R936S + Q939G (UniProt Q14671)
T25 sequence: T1 sequence with V108Y, W109S, F112G

[26] = target: T26, PUM1 PUF domain R3-YSV C935Y + R936S + Q939V (UniProt Q14671)
T26 sequence: T1 sequence with V108Y, W109S, F112V

[27] = target: T27, PUM1 PUF domain R3-YWG C935Y + R936W + Q939G (UniProt Q14671)
T27 sequence: T1 sequence with V108Y, F112G

[28] = target: T28, PUM1 PUF domain R5-PHQ R6-SWD C1007P + R1008H + N1043S + Y1044W + Q1047D (UniProt Q14671)
T28 sequence: T1 sequence with V108C, W109R, F112Q, C180P, R181H, N216S, Y217W, Q220D

[29] = target: T29, PUM1 PUF domain R6-SWD R7-NPG N1043S + Y1044W + Q1047D + S1079N + N1080P + E1083G (Homo sapiens) (UniProt Q14671)
T29 sequence: T1 sequence with V108C, W109R, F112Q, N216S, Y217W, Q220D, S252N, N253P, E256G

GGCUAGAACUAGUGGAUCCCCCGGCGCCCGGCGGCUCGAGCCCGGGUAAGUGUAACUAGUCUGCAUGCCGCCGGGCGCCAUGCCUGCAGGUCGACUCUAGAAAACAUG
binding signal (log2 enrichment (interaction score)) [1]: < -7.52
binding signal (log2 enrichment (interaction score)) [2]: -1.7
binding signal (log2 enrichment (interaction score)) [3]: < -9.14
binding signal (log2 enrichment (interaction score)) [4]: < -8.62
binding signal (log2 enrichment (interaction score)) [5]: -0.74
binding signal (log2 enrichment (interaction score)) [6]: < -10.2
binding signal (log2 enrichment (interaction score)) [7]: -3.94
binding signal (log2 enrichment (interaction score)) [8]: < -8.49
binding signal (log2 enrichment (interaction score)) [9]: < -9.13
binding signal (log2 enrichment (interaction score)) [10]: < -7.14
binding signal (log2 enrichment (interaction score)) [11]: < -7.13
binding signal (log2 enrichment (interaction score)) [12]: < -9.55
binding signal (log2 enrichment (interaction score)) [13]: -5.25
binding signal (log2 enrichment (interaction score)) [14]: < -7.43
binding signal (log2 enrichment (interaction score)) [15]: -6.33
binding signal (log2 enrichment (interaction score)) [16]: < -7.92
binding signal (log2 enrichment (interaction score)) [17]: < -8.07
binding signal (log2 enrichment (interaction score)) [18]: -1.92
binding signal (log2 enrichment (interaction score)) [19]: < -8.3
binding signal (log2 enrichment (interaction score)) [20]: < -7.36
binding signal (log2 enrichment (interaction score)) [21]: -2.93
binding signal (log2 enrichment (interaction score)) [22]: < -8.31
binding signal (log2 enrichment (interaction score)) [23]: -3.43
binding signal (log2 enrichment (interaction score)) [24]: < -7.7
binding signal (log2 enrichment (interaction score)) [25]: -5.58
binding signal (log2 enrichment (interaction score)) [26]: < -9.37
binding signal (log2 enrichment (interaction score)) [27]: < -7.14
binding signal (log2 enrichment (interaction score)) [28]: -8.75
binding signal (log2 enrichment (interaction score)) [29]: -1.26
